Test results as given in publication PMC5697057.
No constants are given. Whether binding was seen depends on the method and setting. In cells and extracts the contact can be indirect. A yes stands for co-enrichment or nearness to the bait. Other partners may have been found.

Molecular target: T1, cytochrome b6f subunit IV (PetD) of pea (pea (Pisum sativum)) (UniProt P06527)
T1 sequence (chain, [35S]-methionine label): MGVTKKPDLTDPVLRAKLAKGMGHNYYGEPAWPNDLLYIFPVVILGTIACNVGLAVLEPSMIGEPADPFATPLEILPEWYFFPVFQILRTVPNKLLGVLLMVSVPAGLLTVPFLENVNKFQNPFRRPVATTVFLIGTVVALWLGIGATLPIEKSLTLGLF
Experiment: cross-linking + affinity purification with mass spectrometry; [35S]PetD translated in vitro and inserted post-translationally in the presence of pea thylakoid membranes and stroma fraction; cross-linked on ice with BSOCOES or SPDP; immunoprecipitated with 2 ug antibody against ALB3 or cpSRP54; bands analysed by Q-TOF MS/MS with peptide mass fingerprints and Mascot Distiller

binding: binds
Substance: ALB3 insertase
